Results from article doi:10.1101/483925.
No constants are given. Whether binding was seen depends on the method and setting.

Protein sequences, listed by entry. Tags and fused reporters are not part of them.
UniProt Q9SXZ2: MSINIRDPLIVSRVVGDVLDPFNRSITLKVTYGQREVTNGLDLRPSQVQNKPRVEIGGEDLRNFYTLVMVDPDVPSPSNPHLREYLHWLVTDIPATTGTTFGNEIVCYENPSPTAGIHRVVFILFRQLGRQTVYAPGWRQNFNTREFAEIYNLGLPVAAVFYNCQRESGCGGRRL

Biological target: T1, FD-C, wild-type C-terminal domain of FD (amino acids 203-285) (Arabidopsis thaliana) (UniProt Q84JK2)
T1 sequence: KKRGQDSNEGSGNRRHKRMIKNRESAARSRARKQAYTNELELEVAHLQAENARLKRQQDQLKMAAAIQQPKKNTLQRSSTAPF
Test: native gel or EMSA

Question: “FLOWERING LOCUS T (FT) (from UniProt Q9SXZ2 1-175)” was tested. Which binding did it give?
Answer: no binding
